Data published in patent US20140275090A1, “BILE ACID RECYCLING INHIBITORS FOR TREATMENT OF PRIMARY SCLEROSING CHOLANGITIS AND INFLAMMATORY BOWEL DISEASE” (Lumena Pharmaceuticals, Inc., priority 2013, published 2014).
Some results were stated once for a whole list of compounds, not compound by compound.

Tested on: fecal bile acids
Assay: ZDF rat 3-week study: 24 hour fecal bile acids concentrations
Type: in vivo
Details: twice daily oral gavage, Day 10, statistically significant

In the case of `CCCCC1(CCCC)CS(=O)(=O)c2ccc(N(C)C)cc2[C@@H](c2ccc(OCCCC[N+]34CCN(CC3)CC4)cc2)[C@H]1O.CS(=O)(=O)[O-]` [SC-435, 1-[4-[4-[(4R,5R)-3,3-dibutyl-7-(dimethylamino)-2,3,4,5-tetrahydro-4-hydroxy-1,1-dioxido-1-benzothiepin-5-yl]phenoxy]butyl]-4-aza-1-azoniabicyclo[2.2.2]octane methanesulfonate salt], the “increase in 24 h total fecal BA concentration compared with vehicle-treated rats” value is reported as “up to 4 fold”.
